PubChem BioAssay AID1259424, University of Nebraska Medical Center, 2018
Screen: 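Seek colon cancer survival genes behaving like KSR1, using a six-gene signature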 (primary screen). Cell system: human HCT116 colon cancer cells. Knock-down reagent: siRNA pool against human genes, 50 nM. Read-out: 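Log2 levels of six mRNAs (branched-DNA multiplex), adjusted by two reference genes and the non-targeting median, then scored against the average KSR1 knockdown pattern as Pearson r and euclidean distance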. Reading the numbers: mean correlation with KSR1 profile: higher = expression change more like KSR1 knockdown.
The deposit covers about 14,000 reagents; shown is a random part of them. 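Higher correlation or smaller distance means closer resemblance to KSR1 loss; control wells, including KSR1 knockdowns, recur on many plates.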 Not all columns of the deposit are shown. No sequences are given here. Not given: the time to read-out.

The first 2 records as a preview:
no.	gene	mean correlation with KSR1 profile
1	MS4A6A (GeneID 64231)	-0.0288
2	ABCC6 (GeneID 368)	-0.663

Results, from the start:
no.	gene	mean correlation with KSR1 profile
1	MS4A6A (GeneID 64231)	-0.0288
2	ABCC6 (GeneID 368)	-0.663
3	WDR82 (GeneID 80335)	0.41
4	KCNH5 (GeneID 27133)	0.0557
5	INVS (GeneID 27130)	-0.0116
6	ITM2A (GeneID 9452)	-0.0801
7	RPS27L (GeneID 51065)	0.288
8	SLC9A6 (GeneID 10479)	0.27
9	TMEM143 (GeneID 55260)	-0.214
10	KCNS1 (GeneID 3787)	-0.0199
11	AKAP12 (GeneID 9590)	0.295
12	ARMCX1 (GeneID 51309)	-0.185
13	FUT5 (GeneID 2527)	-0.184
14	BCS1L (GeneID 617)	0.355
15	ARHGEF39 (GeneID 84904)	-0.317
16	FANCE (GeneID 2178)	-0.603
17	PITPNM2 (GeneID 57605)	-0.357
18	G3BP2 (GeneID 9908)	0.25
19	CXCL6 (GeneID 6372)	-0.302
20	ARHGEF7 (GeneID 8874)	0.317
